In all, about 390,000 compounds went through this assay and about 910 (0.23%) were called active. This list was built around the results that the source calls inconclusive (neither active nor inactive); the mix of calls is not that of the screen. The call rests on the fitted dose curve; in most records, active means well fitted inhibition curve with a large enough effect; inconclusive means small, poorly fitted or top-dose-only effect; inactive means no such curve, though single readings can be large or run the other way. Where the call is inconclusive, the potency comes from a doubtful curve fit.
target: Ubiquitin carboxyl-terminal hydrolase 1 (Homo sapiens) (UniProt O94782); assay: Inhibitors of USP1/UAF1: Primary Screen; conditions: recombinant USP1/UAF1, Ub-Rhodamine cleavage fluorescence; activity change, negative = inhibition: at 57.1 µM (top of the series); further: nearly all actives have a fitted effect of over 60% in size
Procedure, shortened: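 USP1/UAF1 complex at 1 nM was preincubated with compound for 15 min at room temperature, then Ub-Rho substrate (150nM final) was added. Fluorescence (480/540 nm) was read kinetically, 6 reads every 60 seconds.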
On the % scale 0 is the no-effect control and ±100 the full control effect; potency means the concentration at half of the fitted maximal effect.

By UniProt entry, the sequences of proteins in these tests, tags left out. Where a name states a change or a piece, a line headed by the entry shows the natural chain unless it says otherwise.
UniProt O94782: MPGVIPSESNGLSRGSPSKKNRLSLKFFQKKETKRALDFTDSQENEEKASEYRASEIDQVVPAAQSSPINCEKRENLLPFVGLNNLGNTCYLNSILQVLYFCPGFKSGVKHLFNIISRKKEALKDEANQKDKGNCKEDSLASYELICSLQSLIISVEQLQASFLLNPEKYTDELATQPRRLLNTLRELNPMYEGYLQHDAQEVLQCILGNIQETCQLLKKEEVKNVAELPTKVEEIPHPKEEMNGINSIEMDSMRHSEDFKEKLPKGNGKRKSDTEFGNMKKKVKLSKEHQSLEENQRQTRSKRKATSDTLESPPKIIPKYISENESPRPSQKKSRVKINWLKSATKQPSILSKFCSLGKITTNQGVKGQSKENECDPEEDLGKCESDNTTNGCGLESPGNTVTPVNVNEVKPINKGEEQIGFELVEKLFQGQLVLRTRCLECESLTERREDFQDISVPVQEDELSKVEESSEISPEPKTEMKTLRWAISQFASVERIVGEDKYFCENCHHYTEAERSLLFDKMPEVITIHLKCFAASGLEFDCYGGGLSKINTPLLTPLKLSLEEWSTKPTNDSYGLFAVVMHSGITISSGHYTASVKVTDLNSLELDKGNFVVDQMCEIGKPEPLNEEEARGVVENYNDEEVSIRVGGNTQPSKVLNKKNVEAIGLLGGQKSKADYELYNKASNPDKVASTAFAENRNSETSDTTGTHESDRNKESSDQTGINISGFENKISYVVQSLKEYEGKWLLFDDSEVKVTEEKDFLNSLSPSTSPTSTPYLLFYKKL

Structure (SMILES) | Potency | activity change, negative = inhibition
C[C@@H]([C@@H](O)c1ccccc1)N(C)C(=O)C(N)Cc1ccccc1 (stereo partly specified) | inconclusive: 0.0891 µM [inhibitor, full curve, poor fit] | –
COc1ccc(CCN2CCC(Nc3nc4ccccc4n3Cc3ccc(F)cc3)CC2)cc1 | inactive | –
Cc1ccccc1NC(=O)CSc1ccc(-c2ccco2)nn1 | inactive | –
COc1ccc(C2c3c(n(C)c4ccccc34)C(=O)N2CC(=O)Nc2ccc(C)c(Cl)c2)cc1 (stereo unspecified) | inconclusive: 0.355 µM [inhibitor, full curve] | –
O=C(N/N=C/c1ccco1)Nc1ccccc1 | inconclusive: 0.631 µM [inhibitor, full curve, poor fit] | –
Cc1c2c(cc3c1[nH]c1ccccc13)C=NCC2 | inconclusive: 50.1 µM [inhibitor, partial curve, poor fit] | –
CCN(Cc1ccncc1)C(=O)C(CO)c1ccccc1 (stereo unspecified) | inconclusive: 56.2 µM [inhibitor, partial curve] | –
COC(=O)COc1ccc(NC(=O)Cn2nc(-c3ccccc3)c3ccccc3c2=O)cc1 | inconclusive: 0.282 µM [inhibitor, full curve, poor fit] | –
CCOC(=O)c1c(-c2ccc(Br)cc2)csc1NC(=O)c1ccc(F)cc1 | inactive | –
CC1(OC(=O)c2ccc(Cl)nc2)C(=O)C=C2C=C3CCCN3C=C2C1=O (stereo unspecified) | inconclusive: 28.2 µM [inhibitor, partial curve] | –
O=C1S/C(=C\c2ccc(N3CCOCC3)o2)C(=O)N1c1ccccc1 | active: 28.2 µM | –
CCS(=O)(=O)c1nc(S(=O)(=O)c2ccc(Cl)cc2)c(NCCCN2CCOCC2)s1 | inactive | –
CC(Sc1nc(=O)cc(N)n1CCc1ccccc1)C(=O)Nc1ccc(Cl)cc1 (stereo unspecified) | inconclusive: 44.7 µM [inhibitor, partial curve, poor fit] | –
COc1ccccc1NCc1cccn1-c1nnc(N2CCOCC2)s1 | inconclusive: 44.7 µM [inhibitor, partial curve, poor fit] | –
CN(C(=O)c1ccc2c(c1)N(Cc1cccc(Cl)c1)C(=O)c1ccccc1S2=O)C1CCCCC1 (stereo unspecified) | inactive | –
CCCOc1cccc(C2C(C(=O)c3cc4ccccc4o3)=C(O)C(=O)N2c2cc(C)on2)c1 (stereo unspecified) | inconclusive: 44.7 µM [inhibitor, partial curve, poor fit] | –
CC(C)(C)OC(=O)N1CCN(C(=O)c2[nH]cnc2C(=O)Nc2ccccc2F)CC1 | inconclusive: 1.26 µM [inhibitor, full curve] | –
COc1ccc(C(CC(=O)O)c2ccc3c(c2)OCO3)cc1 (stereo unspecified) | inactive | –
COc1ccc(-n2nnnc2SCC(=O)Nc2ccccc2N2CCOCC2)cc1OC | inactive | –
COc1cc(/C=N/N2C(C)CCCC2C)cc(Br)c1O (stereo unspecified) | inactive | –
CCOc1c(Cl)cc(Cl)cc1CNCCSc1nnnn1C | inconclusive: 39.8 µM [inhibitor, partial curve, poor fit] | –
CN(C(=O)c1cccc(NC(=O)Cc2ccc(NC(=O)C3CCCN(S(=O)(=O)c4cccc([N+](=O)[O-])c4)C3)cc2)c1)C1CCCCC1 (stereo unspecified) | inconclusive: 44.7 µM [inhibitor, partial curve, poor fit] | –

Structure (SMILES) | Potency | activity change, negative = inhibition
O=C1c2ccccc2C(=O)N1CCCCCCc1ccccc1 | inconclusive: 0.282 µM [inhibitor, full curve, poor fit] | –
CCOC(=O)c1c(NC(=O)/C=C/c2ccc3c(c2)OCO3)sc(C)c1CC | inactive | –
O=C(Oc1cccnc1)c1ccc([N+](=O)[O-])cc1 | inactive | –
Cc1cc(C)c2sc(N(CCCN(C)C)C(=O)c3ccc(S(=O)(=O)N(C)C4CCCCC4)cc3)nc2c1 | inactive | –
CCn1c(SCc2nc3sc(C(=O)O)c(C)c3c(=O)[nH]2)nc2ccccc21 | inconclusive: 28.2 µM [inhibitor, partial curve] | –
CC(=O)N1N=C(c2cccc(Br)c2)OC12CCCC2 | inconclusive: 5.01 µM [inhibitor, partial curve] | –
O=C(O)CC(NC(=O)C12CC3CC(CC(C3)C1)C2)c1cccc([N+](=O)[O-])c1 (stereo unspecified) | inconclusive: 44.7 µM [inhibitor, partial curve, poor fit] | –
Cc1nn(-c2ccccc2)nc1C(=O)Nc1cccc(C(=O)NC2CC2)c1 | inconclusive: 11.2 µM [inhibitor, partial curve, poor fit] | –
Cc1cccc(C(=O)NC2CCN(CC(=O)NCc3ccccc3F)CC2)c1 | inconclusive: 1.41 µM [inhibitor, partial curve, poor fit] | –
CC(=O)c1sc(NCc2ccccc2)nc1C | inactive | –
O=C1C(Nc2ccc(O)cc2)=C/C(=N/S(=O)(=O)c2cccs2)c2ccccc21 | active: 4.47 µM | –
COc1cc(/C=C/C(=O)c2ccc([N+](=O)[O-])o2)ccc1O | inconclusive: 39.8 µM [inhibitor, partial curve] | –
O=C(c1ccccc1)c1ccc(OCC(O)CNCc2ccc(F)cc2)cc1 (stereo unspecified) | inactive | –
COc1ccc(C(=O)NCc2cn3c(C)csc3n2)cc1OC | inconclusive: 0.562 µM [inhibitor, full curve, poor fit] | –
Cc1c(O)ccc2c3c(c(=O)oc12)CCC(C)C3 (stereo unspecified) | inactive | –
CCOc1cccc2cc(-c3nc4ccc(C(=O)O)cc4[nH]3)c(=O)oc12 | inconclusive: 22.4 µM [inhibitor, partial curve] | –
CC1CCCC(NC(=O)CCCCCn2c(=S)[nH]c3ccsc3c2=O)C1C (stereo unspecified) | inconclusive: 0.355 µM [inhibitor, full curve, poor fit] | –
CCOc1ccc(NS(=O)(=O)c2ccc3[nH]cc(C(=O)N(C)Cc4ccccc4)c(=O)c3c2)cc1 | inconclusive: 1.58 µM [inhibitor, full curve, poor fit] | –
CN1CCN(c2nc(N3CCN(c4ccccc4)CC3)ncc2F)CC1 | inconclusive: 56.2 µM [inhibitor, partial curve, poor fit] | –
O=c1c(Br)ccc(Br)cc1Br | inconclusive: 39.8 µM [inhibitor, partial curve] | –
C=CC#CC[N+]1(CC#Cc2ccccc2)CCOCC1 | inconclusive: 31.6 µM [inhibitor, partial curve, poor fit] | –
O=C(CSc1cn[nH]n1)Nc1ccccc1C(=O)O | inconclusive: 50.1 µM [inhibitor, partial curve, poor fit] | –

An excerpt from above in order of molar mass, ascending.
Structure (SMILES) | Potency | activity change, negative = inhibition
O=C(Oc1cccnc1)c1ccc([N+](=O)[O-])cc1 | inactive | –
CC(=O)c1sc(NCc2ccccc2)nc1C | inactive | –
C=CC#CC[N+]1(CC#Cc2ccccc2)CCOCC1 | inconclusive: 31.6 µM [inhibitor, partial curve, poor fit] | –
COc1cc(/C=C/C(=O)c2ccc([N+](=O)[O-])o2)ccc1O | inconclusive: 39.8 µM [inhibitor, partial curve] | –
O=C1c2ccccc2C(=O)N1CCCCCCc1ccccc1 | inconclusive: 0.282 µM [inhibitor, full curve, poor fit] | –
CC(=O)N1N=C(c2cccc(Br)c2)OC12CCCC2 | inconclusive: 5.01 µM [inhibitor, partial curve] | –
COc1ccc(C(=O)NCc2cn3c(C)csc3n2)cc1OC | inconclusive: 0.562 µM [inhibitor, full curve, poor fit] | –
O=c1c(Br)ccc(Br)cc1Br | inconclusive: 39.8 µM [inhibitor, partial curve] | –
CCOc1cccc2cc(-c3nc4ccc(C(=O)O)cc4[nH]3)c(=O)oc12 | inconclusive: 22.4 µM [inhibitor, partial curve] | –
CN1CCN(c2nc(N3CCN(c4ccccc4)CC3)ncc2F)CC1 | inconclusive: 56.2 µM [inhibitor, partial curve, poor fit] | –
Cc1nn(-c2ccccc2)nc1C(=O)Nc1cccc(C(=O)NC2CC2)c1 | inconclusive: 11.2 µM [inhibitor, partial curve, poor fit] | –
O=C(c1ccccc1)c1ccc(OCC(O)CNCc2ccc(F)cc2)cc1 (stereo unspecified) | inactive | –
Cc1cccc(C(=O)NC2CCN(CC(=O)NCc3ccccc3F)CC2)c1 | inconclusive: 1.41 µM [inhibitor, partial curve, poor fit] | –
CCn1c(SCc2nc3sc(C(=O)O)c(C)c3c(=O)[nH]2)nc2ccccc21 | inconclusive: 28.2 µM [inhibitor, partial curve] | –
CC1CCCC(NC(=O)CCCCCn2c(=S)[nH]c3ccsc3c2=O)C1C (stereo unspecified) | inconclusive: 0.355 µM [inhibitor, full curve, poor fit] | –
O=C1C(Nc2ccc(O)cc2)=C/C(=N/S(=O)(=O)c2cccs2)c2ccccc21 | active: 4.47 µM | –
Cc1cc(C)c2sc(N(CCCN(C)C)C(=O)c3ccc(S(=O)(=O)N(C)C4CCCCC4)cc3)nc2c1 | inactive | –

Additional records

Structure (SMILES) | Potency | activity change, negative = inhibition
OC(C#Cc1ccccn1)c1cccs1 (stereo unspecified) | inconclusive: 50.1 µM [inhibitor, partial curve] | –
O=C(Nc1ccccc1O)c1c(O)c2c([nH]c1=O)CCCC2 | inactive | –
O=C(COC(=O)C1COc2ccccc2O1)Nc1cccc(S(=O)(=O)N2CCCCC2)c1 (stereo unspecified) | inconclusive: 5.62 µM [inhibitor, partial curve] | –
CSc1cccc(NC(=O)Cn2c3ncccc3c(=O)n2-c2ccc(C)cc2)c1 | inconclusive: 39.8 µM [inhibitor, partial curve] | –
CC(C)[C@H](NC(=O)c1ccccc1)C(=O)OCC(=O)c1ccccc1F | – | inconclusive: -28.6% [inhibitor]
Cc1onc(-c2ccccc2)c1C(=O)N1CCN(c2ncccn2)CC1 | inactive | –
Cc1cc(=O)oc(C)c1C(=O)Nc1ccc2ncccc2c1 | inconclusive: 31.6 µM [inhibitor, partial curve, poor fit] | –
COc1ccc(CNC(=O)C[C@H]2C[C@H](C(=O)N3CCCCC3)[C@@]3(C)c4[nH]c5ccc(Cl)cc5c4CCN3C2=O)cc1OC | inconclusive: 0.251 µM [inhibitor, full curve, poor fit] | –
COc1cc(/C=C/C(=O)OCC(=O)Nc2cccc(F)c2)ccc1O | inconclusive: 5.01 µM [inhibitor, full curve, poor fit] | –
COc1c2ccoc2c(OCC=C(C)C)c2oc(=O)ccc12 | inconclusive: 39.8 µM [inhibitor, partial curve, poor fit] | –
Cc1ccc(CNC(=O)c2cc3c(C)nc4ccccc4c3o2)cc1 | inconclusive: 44.7 µM [inhibitor, partial curve, poor fit] | –
CCOc1ccc([C@@H]2CC=C(C(=O)O)[C@H](c3cccc(Cl)c3)N2S(=O)(=O)c2ccc(C)cc2)cc1 | inconclusive: 3.98 µM [inhibitor, full curve, poor fit] | –
N#C/C(=C(/O)c1ccccc1F)c1nc2cc(C(F)(F)F)ccc2s1 | inconclusive: 28.2 µM [inhibitor, partial curve] | –
O=C1Cc2ccccc2C(=O)N1c1cccc(Cl)c1 | inconclusive: 25.1 µM [inhibitor, partial curve] | –
Cc1cccc(-c2noc(CCC(=O)N3CCN(c4cc(C)ccc4C)CC3)n2)c1 | inconclusive: 0.1 µM [inhibitor, full curve, poor fit] | –
COc1ccc(OC)c(/C=N/N(C)c2ccccc2)c1 | inconclusive: 31.6 µM [inhibitor, partial curve] | –
CCN(CC)C(=O)C1CCCN(C/C=C/c2ccccc2[N+](=O)[O-])C1 (stereo unspecified) | inactive | –
COc1cc(SC)ccc1C(=O)NCCOc1ccccc1Cl | inconclusive: 39.8 µM [inhibitor, partial curve] | –
Cc1ccc(C(C)C)c(OCC(=O)Nc2ccc(C(=O)OC3CCCCC3)cc2)c1 | inactive | –
COc1cc(/C=N/NC(=O)COc2c(C)cc([N+](=O)[O-])cc2C)ccc1OC(=O)c1ccccc1 | inactive | –
COc1ccc(C(c2nnnn2Cc2cccs2)N2CCN(c3ccc(F)cc3)CC2)cc1OC (stereo unspecified) | inactive | –
COc1ccc(Nc2ncc(C(=O)N3CCN(c4cccc(Cl)c4)CC3)c3ccccc23)cc1 | inconclusive: 50.1 µM [inhibitor, partial curve, poor fit] | –

— PubChem BioAssay AID743255 (National Center for Advancing Translational Sciences (NCATS), 2014)
